The list shows a part of the results. Single values are uncertain, as repeats are few or missing.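 The apoptosis fraction was the count of cleaved-PARP antibody-stained nuclei relative to all DNA-stained nuclei, imaged in 1,536-well plates. Screening doses were set so most cells survived, and baseline and induced cleaved-PARP levels vary greatly across cell lines.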
Each compound was assayed on RVH-421 (assay: cleaved PARP positive nuclei fraction relative to DMSO control; melanoma cells; higher = more apoptosis). Conditions: library dose: low library concentration; 72 h.

SMILES	cleaved PARP positive nuclei fraction
CCN(CC)CCNC(=O)c1c(C)[nH]c(/C=C2\C(=O)Nc3ccc(F)cc32)c1C [sunitinib] + OCc1c[nH]c2ccccc12 [Indole-3-carbinol] (first compound 0.4 µM, partner dose 0.8 µM)	58.9%
C[C@]1(O)C[C@@H](c2nc(-c3ccc4ccc(-c5ccccc5)nc4c3)c3c(N)nccn32)C1 + CCCS(=O)(=O)Nc1ccc(F)c(C(=O)c2c[nH]c3ncc(Cl)cc23)c1F [PLX4720] (first compound 0.4 µM, partner dose 0.08 µM)	82.7%
Cn1cnc2c(F)c(Nc3ccc(Br)cc3Cl)c(C(=O)NOCCO)cc21 [selumetinib] + C#Cc1cccc(Nc2ncnc3cc(OCCOC)c(OCCOC)cc23)c1 [erlotinib] (first compound 0.015 µM, partner dose 0.8 µM)	158%
Cn1sc(=O)n(Cc2ccccc2)c1=O + OCc1c[nH]c2ccccc12 [Indole-3-carbinol] (first compound 0.4 µM, partner dose 0.8 µM)	36.2%
Cn1cnc2c(F)c(Nc3ccc(Br)cc3Cl)c(C(=O)NOCCO)cc21 [selumetinib] + C[C@@H](Oc1cc(-c2cnn(C3CCNCC3)c2)cnc1N)c1c(Cl)ccc(F)c1Cl [Crizotinib] (first compound 0.015 µM, partner dose 0.2 µM)	128%
NC(=O)c1ccc(N(C(N)=O)c2c(F)cccc2F)nc1-c1ccc(F)cc1F + Clc1ccc(Nc2nnc(Cc3ccncc3)c3ccccc23)cc1 [vatalanib] (first compound 0.4 µM, partner dose 2 µM)	83%
Cn1sc(=O)n(Cc2ccccc2)c1=O + Clc1ccc(Nc2nnc(Cc3ccncc3)c3ccccc23)cc1 [vatalanib] (first compound 0.4 µM, partner dose 2 µM)	162%
COc1ccc(C2=N[C@@H](c3ccc(Cl)cc3)[C@@H](c3ccc(Cl)cc3)N2C(=O)N2CCNC(=O)C2)c(OC(C)C)c1 [Nutlin-3] + CC(=O)c1c(C)c2cnc(Nc3ccc(N4CCNCC4)cn3)nc2n(C2CCCC2)c1=O [palbociclib] (first compound 0.1 µM, partner dose 0.04 µM)	71.3%
COc1ccc(C2=N[C@@H](c3ccc(Cl)cc3)[C@@H](c3ccc(Cl)cc3)N2C(=O)N2CCNC(=O)C2)c(OC(C)C)c1 [Nutlin-3] + Cn1c(=O)n(-c2ccc(C(C)(C)C#N)cc2)c2c3cc(-c4cnc5ccccc5c4)ccc3ncc21 [NVP-BEZ235] (first compound 0.1 µM, partner dose 0.004 µM)	88%
NC(=O)c1ccc(N(C(N)=O)c2c(F)cccc2F)nc1-c1ccc(F)cc1F + C=C(c1ccc(C(=O)O)cc1)c1cc2c(cc1C)C(C)(C)CCC2(C)C [Bexarotene] (first compound 0.4 µM, partner dose 2 µM)	107%
Cn1cnc2c(F)c(Nc3ccc(Br)cc3Cl)c(C(=O)NOCCO)cc21 [selumetinib] + Cn1nnc2c(C(N)=O)ncn2c1=O [temozolomide] (first compound 0.015 µM, partner dose 2 µM)	119%
C[C@]1(O)C[C@@H](c2nc(-c3ccc4ccc(-c5ccccc5)nc4c3)c3c(N)nccn32)C1 + CS(=O)(=O)c1ccc(C(=O)Nc2ccc(Cl)c(-c3ccccn3)c2)c(Cl)c1 [vismodegib] (first compound 0.4 µM, partner dose 1 µM)	43.6%
C[C@]1(O)C[C@@H](c2nc(-c3ccc4ccc(-c5ccccc5)nc4c3)c3c(N)nccn32)C1 + Cc1cc(Nc2cc(N3CCN(C)CC3)nc(/C=C/c3ccccc3)n2)n[nH]1 [ENMD2076] (first compound 0.4 µM, partner dose 0.04 µM)	91.9%
Cn1cnc2c(F)c(Nc3ccc(Br)cc3Cl)c(C(=O)NOCCO)cc21 [selumetinib] + O=C(O)[C@@H]1[O][Sb](=[O])([O][Sb]2(=[O])[O][C@H]([C@H](O)CO)[C@H](O)[C@H](C(=O)O)[O]2)[O][C@H]([C@H](O)CO)[C@@H]1O [stibogluconate] (first compound 0.015 µM, partner dose 2 µM)	145%
Cn1cnc2c(F)c(Nc3ccc(Br)cc3Cl)c(C(=O)NOCCO)cc21 [selumetinib] + CCN(CC)CCNC(=O)c1c(C)[nH]c(/C=C2\C(=O)Nc3ccc(F)cc32)c1C [sunitinib] (first compound 0.015 µM, partner dose 0.4 µM)	71.3%
Cn1sc(=O)n(Cc2ccccc2)c1=O + CN(c1ncccc1CNc1nc(Nc2ccc3c(c2)CC(=O)N3)ncc1C(F)(F)F)S(C)(=O)=O [PF562271] (first compound 0.4 µM, partner dose 0.08 µM)	169%
CC1(C)CCC(c2ccc(Cl)cc2)=C(CN2CCN(c3ccc(C(=O)NS(=O)(=O)c4ccc(N[C@H](CCN5CCOCC5)CSc5ccccc5)c(S(=O)(=O)C(F)(F)F)c4)cc3)CC2)C1 + OCc1c[nH]c2ccccc12 [Indole-3-carbinol] (first compound 0.4 µM, partner dose 0.8 µM)	27.4%
CC(=O)O[C@@]12CO[C@@H]1C[C@H](O)[C@@]1(C)C(=O)[C@H](O)C3=C(C)[C@@H](OC(=O)[C@H](O)[C@@H](NC(=O)OC(C)(C)C)c4ccccc4)C[C@@](O)([C@@H](OC(=O)c4ccccc4)[C@H]21)C3(C)C [Docetaxel] + NC1(c2ccc(-c3nc4ccn5c(=O)[nH]nc5c4cc3-c3ccccc3)cc2)CCC1 [MK2206] (first compound 0.0001 µM, partner dose 0.4 µM)	87.5%
C[C@]1(O)C[C@@H](c2nc(-c3ccc4ccc(-c5ccccc5)nc4c3)c3c(N)nccn32)C1 + Nc1cccc2c1CN(C1CCC(=O)NC1=O)C2=O [lenalidomide] (first compound 0.4 µM, partner dose 1 µM)	174%
C[C@@H](N)c1ccc(C(=O)Nc2ccnc3[nH]ccc23)cc1 + C=CCNC1=C2C[C@@H](C)C[C@H](OC)[C@H](O)[C@@H](C)/C=C(\C)[C@H](OC(N)=O)[C@@H](OC)/C=C\C=C(/C)C(=O)NC(=CC1=O)C2=O [Tanespimycin] (first compound 0.4 µM, partner dose 0.002 µM)	156%

Rewritten with bars between the fields: entries from further up
SMILES | cleaved PARP positive nuclei fraction
C[C@]1(O)C[C@@H](c2nc(-c3ccc4ccc(-c5ccccc5)nc4c3)c3c(N)nccn32)C1 + CCCS(=O)(=O)Nc1ccc(F)c(C(=O)c2c[nH]c3ncc(Cl)cc23)c1F [PLX4720] (first compound 0.4 µM, partner dose 0.08 µM) | 82.7%
Cn1sc(=O)n(Cc2ccccc2)c1=O + OCc1c[nH]c2ccccc12 [Indole-3-carbinol] (first compound 0.4 µM, partner dose 0.8 µM) | 36.2%
Cn1sc(=O)n(Cc2ccccc2)c1=O + CN(c1ncccc1CNc1nc(Nc2ccc3c(c2)CC(=O)N3)ncc1C(F)(F)F)S(C)(=O)=O [PF562271] (first compound 0.4 µM, partner dose 0.08 µM) | 169%
CC(=O)O[C@@]12CO[C@@H]1C[C@H](O)[C@@]1(C)C(=O)[C@H](O)C3=C(C)[C@@H](OC(=O)[C@H](O)[C@@H](NC(=O)OC(C)(C)C)c4ccccc4)C[C@@](O)([C@@H](OC(=O)c4ccccc4)[C@H]21)C3(C)C [Docetaxel] + NC1(c2ccc(-c3nc4ccn5c(=O)[nH]nc5c4cc3-c3ccccc3)cc2)CCC1 [MK2206] (first compound 0.0001 µM, partner dose 0.4 µM) | 87.5%
